{
  "source": "paper PMC7699256",
  "about": "(Molecules, 2020)",
  "note": "Some peptides are written in HELM: one residue between dots, names in brackets for other building blocks, links after the first $.",
  "data": [
    {"assay": "general procedure: Fmoc solid-phase peptide synthesis; Rink amide resin; HATU/DIPEA (CF labelling)", "details": "whole synthesis", "values": [
      {"substance": "PEPTIDE1{Q.L.A.D.V.S.P.A.A.F.L.T.Q.Q.Q.L.L.P.F.Y.L.H.A.M.[am]}$$$$V2.0", "difficulty met": "a side product in which deamidation of the aspartate residue occurred"}
    ]},
    {"assay": "general procedure: Fmoc solid-phase peptide synthesis; Rink amide resin; HATU/DIPEA (CF labelling)", "details": "whole synthesis, RP-HPLC coupled with ESI/MS", "units": {"purity (crude or final not stated)": "%"}, "values": [
      {"substance": "CF-AYLQAQQLLPFNQLVRSPAA", "purity (crude or final not stated)": ">90"},
      {"substance": "CF-FNQLAALNSAAYLQQQQLLPFSQLA", "purity (crude or final not stated)": ">90"},
      {"substance": "CF-QLADVSPAAFLTQQQLLPFYLHAM", "purity (crude or final not stated)": ">70"},
      {"substance": "PEPTIDE1{A.Y.L.Q.A.Q.Q.L.L.P.F.N.Q.L.V.R.S.P.A.A.[am]}$$$$V2.0", "purity (crude or final not stated)": "≥95"},
      {"substance": "PEPTIDE1{F.N.Q.L.A.A.L.N.S.A.A.Y.L.Q.Q.Q.Q.L.L.P.F.S.Q.L.A.[am]}$$$$V2.0", "purity (crude or final not stated)": "≥95"},
      {"substance": "PEPTIDE1{Q.L.A.D.V.S.P.A.A.F.L.T.Q.Q.Q.L.L.P.F.Y.L.H.A.M.[am]}$$$$V2.0", "purity (crude or final not stated)": "≥70"}
    ]}
  ]
}
